From paper PMC7819943, “Rice protein-binding microarrays: a tool to detect cis-acting elements near promoter regions in rice”
Some of the results follow.

target: T1, OsSMF1 (Oryza sativa, UniProt Q6ZLB0 1-436); test: protein-binding microarray (RPBM); PBS, 2% BSA, 51.3 ng/ul salmon testes DNA, 50 uM zinc acetate, 200 nM TF, 25 C, 1 h; high values mean tight binding; details: protein: recombinant; tags: N-terminal polyhistidine and DsRed monomer fusion (pET32a); chain copies: 2; label: CyDye5-dUTP incorporated in the synthesized complementary strand; 3' TTTTT single-stranded linker to array surface; dsDNA, one strand shown
T1 sequence: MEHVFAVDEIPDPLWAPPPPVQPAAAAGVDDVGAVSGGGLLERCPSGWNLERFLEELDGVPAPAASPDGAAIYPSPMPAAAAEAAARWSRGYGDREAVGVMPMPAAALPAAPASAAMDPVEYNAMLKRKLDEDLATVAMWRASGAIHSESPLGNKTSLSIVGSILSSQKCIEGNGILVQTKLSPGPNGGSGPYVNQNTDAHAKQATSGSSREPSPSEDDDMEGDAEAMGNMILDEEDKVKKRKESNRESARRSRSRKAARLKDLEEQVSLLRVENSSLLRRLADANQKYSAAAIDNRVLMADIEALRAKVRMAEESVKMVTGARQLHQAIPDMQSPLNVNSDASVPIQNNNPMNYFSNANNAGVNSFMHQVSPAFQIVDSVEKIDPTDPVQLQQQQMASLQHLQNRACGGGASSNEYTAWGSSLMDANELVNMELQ
Method in brief: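 An Axon 4000B scanner gave the binding signal as per-feature fluorescence intensity in arbitrary units. This followed washing of a custom Agilent array that had been incubated for 1 h at 25 °C with 200 nM protein in PBS, 2% BSA, salmon testes DNA and 50 µM zinc acetate. The proteins were transcription factors fused at the N-terminus to polyhistidine and DsRed, expressed in E. coli BL21-CodonPlus and purified on Ni–NTA.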

**Q.** For “CTGCTTAATTACTTCAGCCTTTACACATCAGCATATCATACGGAGTCACCTAGTGCAG”, which binding signal is on record?
**A.** 10500 fluorescence intensity (a.u.)

**Q.** For “GTAGCTCTGTAAACCCCGCGTGTCGGTGTCGGTGGGCGGGCGGAGTCACCTAGTGCAG”, which binding signal is on record?
**A.** 3290 fluorescence intensity (a.u.)

**Q.** “GAAGGAGTAGATTAATGTCTTCTACTGGGACTGTCCGTCACGGAGTCACCTAGTGCAG” was tested. Which binding signal did it give?
**A.** 8980 fluorescence intensity (a.u.)

**Q.** With “CCAGTAGAAAGAGCAACGTGGCGGGCAGTGTCGTCTTCTTCGGAGTCACCTAGTGCAG” as the sequence, how does the binding signal read?
**A.** 7700 fluorescence intensity (a.u.)

**Q.** With “TCACCTTTCACTTCATCCATCTCTACACATCAGCAATATTCGGAGTCACCTAGTGCAG” as the sequence, how does the binding signal read?
**A.** 7280 fluorescence intensity (a.u.)

**Q.** With “GCACACCTTCCCTTGATGTCAGCTTTGATAGTGTTGAGGTCGGAGTCACCTAGTGCAG” as the sequence, how does the binding signal read?
**A.** 3760 fluorescence intensity (a.u.)

**Q.** For “TGTGCCCTCTCCGTTCGATCCAGGAAAATGATAGTGTGATCGGAGTCACCTAGTGCAG”, which binding signal is on record?
**A.** 50200 fluorescence intensity (a.u.)

**Q.** “CAGCGTCGCACGCTTTTCACGCCATGCCGTCACGGTGCCTCGGAGTCACCTAGTGCAG” was tested. Which binding signal did it give?
**A.** 4080 fluorescence intensity (a.u.)

**Q.** Which binding signal does the source give for “GATCGACTACGACGATGCCTTCGCTCCCGTGGCACAGATGCGGAGTCACCTAGTGCAG” here?
**A.** 3390 fluorescence intensity (a.u.)

**Q.** With “CTAGCTTAATTCTGTTTTCATCGTTGTTGGTTTACTTTGACGGAGTCACCTAGTGCAG” as the sequence, how does the binding signal read?
**A.** 25100 fluorescence intensity (a.u.)

**Q.** With “TCCTGGGAAGGCATATAAATTGTTACGTGGTACTTAGAATCGGAGTCACCTAGTGCAG” as the sequence, how does the binding signal read?
**A.** 3540 fluorescence intensity (a.u.)

**Q.** Which binding signal does the source give for “CTACCCCGGATAGCGGATTCACCAAGTTCGCAGCAGCAATCGGAGTCACCTAGTGCAG” here?
**A.** 19200 fluorescence intensity (a.u.)

**Q.** With “AATCCTCTTTGGGAGGACATGGCTTTTGTGTTTAGTGAATCGGAGTCACCTAGTGCAG” as the sequence, how does the binding signal read?
**A.** 4060 fluorescence intensity (a.u.)

**Q.** How did the binding signal turn out when “GGCGCTGATGTCATGCTGACGTCAGTGCCTGATTTTGCTCCGGAGTCACCTAGTGCAG” was run?
**A.** 56100 fluorescence intensity (a.u.)

**Q.** For “TCCGCCCATCCAGTCTTGGCCGCGGCGCCACCTCGCAGGTCGGAGTCACCTAGTGCAG”, which binding signal is on record?
**A.** 3600 fluorescence intensity (a.u.)

**Q.** “TTTTCGGCCAAATATTCCCGCGCCATCTCCGCTTTGTCAGCGGAGTCACCTAGTGCAG” was tested. Which binding signal did it give?
**A.** 3600 fluorescence intensity (a.u.)

**Q.** “GCCGACGGTTGGGGCATGCATCTCGTCAGCCTCTAACGGCCGGAGTCACCTAGTGCAG” was tested. Which binding signal did it give?
**A.** 5810 fluorescence intensity (a.u.)

**Q.** For “GCGAAGTGTCATTGCCGGCTCAGTGGATACACACACAGGACGGAGTCACCTAGTGCAG”, which binding signal is on record?
**A.** 3330 fluorescence intensity (a.u.)

**Q.** “TAGGATTGGCGAAGACACCATAGACGAATCTGTAATGAAGCGGAGTCACCTAGTGCAG” was tested. Which binding signal did it give?
**A.** 3370 fluorescence intensity (a.u.)

**Q.** With “AGACGAAAACGGCCGTCACCGTCCCGTCGCCGTCATCCGGCGGAGTCACCTAGTGCAG” as the sequence, how does the binding signal read?
**A.** 3670 fluorescence intensity (a.u.)

**Q.** “TATCCAACTCCGCGTCCGTCCAGCTCTGCTTCCTACACAACGGAGTCACCTAGTGCAG” was tested. Which binding signal did it give?
**A.** 3190 fluorescence intensity (a.u.)

**Q.** Which binding signal does the source give for “CCTCCCCTCCGAAATGGTACGCCCGTATTTATACCCGTACCGGAGTCACCTAGTGCAG” here?
**A.** 36100 fluorescence intensity (a.u.)

**Q.** With “AAGCAAACGGTAGAGAGTTGTGATTGGTTGAGTAGTAGAGCGGAGTCACCTAGTGCAG” as the sequence, how does the binding signal read?
**A.** 5120 fluorescence intensity (a.u.)

**Q.** “TTCTGAAAGTGCTTATGTGTGCGTATTGTGAGCGCATGTACGGAGTCACCTAGTGCAG” was tested. Which binding signal did it give?
**A.** 20300 fluorescence intensity (a.u.)

**Q.** With “GCAATCTTTTAAACATTTCCACGCAGGTGATGTAAGCTTTCGGAGTCACCTAGTGCAG” as the sequence, how does the binding signal read?
**A.** 3920 fluorescence intensity (a.u.)

**Q.** For “CTATATTTTACTATAAGCTTAATCAAACTTCAAAATATTTCGGAGTCACCTAGTGCAG”, which binding signal is on record?
**A.** 14400 fluorescence intensity (a.u.)

**Q.** Which binding signal does the source give for “TTAATGCGAGATTGTGTGGCAGATTCATCCTTTCATTTAGCGGAGTCACCTAGTGCAG” here?
**A.** 3920 fluorescence intensity (a.u.)

**Q.** With “TTGGCGTCTTGACGTGTTCGGAGAATTTCCTCTCATTTATCGGAGTCACCTAGTGCAG” as the sequence, how does the binding signal read?
**A.** 5280 fluorescence intensity (a.u.)

**Q.** Which binding signal does the source give for “TCATGCGTGAATGCTAAGATCGATCGGCTTAAGCTCAATGCGGAGTCACCTAGTGCAG” here?
**A.** 3550 fluorescence intensity (a.u.)

**Q.** Which binding signal does the source give for “GCCCGCTCGCCCTCTCCCGTGCTGACGCCGGCGCTGAGGCCGGAGTCACCTAGTGCAG” here?
**A.** 5700 fluorescence intensity (a.u.)

**Q.** For “GGCGAATCCGAGGCAGATGGTGCCGTCGTGGACAGAGGCCCGGAGTCACCTAGTGCAG”, which binding signal is on record?
**A.** 4570 fluorescence intensity (a.u.)

**Q.** For “CTCCTCGGTTTTCATGCCACGCTTTTCAAATTGCTAAACACGGAGTCACCTAGTGCAG”, which binding signal is on record?
**A.** 3540 fluorescence intensity (a.u.)

**Q.** With “CCATTCGTCAGTAATCTATTGGGGTAGTCAGGCTCGTCCCCGGAGTCACCTAGTGCAG” as the sequence, how does the binding signal read?
**A.** 29200 fluorescence intensity (a.u.)

**Q.** Which binding signal does the source give for “TCCCTGTTTGTTGGGTCACCAAAGTTGCATCCGACCTATTCGGAGTCACCTAGTGCAG” here?
**A.** 38300 fluorescence intensity (a.u.)

**Q.** For “AAGCTCTATAGAATCATTGGCCAGCTGGACAGACAGTCACCGGAGTCACCTAGTGCAG”, which binding signal is on record?
**A.** 3770 fluorescence intensity (a.u.)

**Q.** “TTAATTCTAATGCCACTTAAGCGCAACGTCAACACCACGTCGGAGTCACCTAGTGCAG” was tested. Which binding signal did it give?
**A.** 18200 fluorescence intensity (a.u.)

**Q.** Which binding signal does the source give for “AAGAGGAAGAGAGTGGAGGGGAAGAAGGGGCTGACATGTGCGGAGTCACCTAGTGCAG” here?
**A.** 5910 fluorescence intensity (a.u.)

**Q.** How did the binding signal turn out when “GACGTATGTTCATCGGAGAGTCCGTCAGCCTTGTCAAAGGCGGAGTCACCTAGTGCAG” was run?
**A.** 3450 fluorescence intensity (a.u.)

**Q.** For “TAAATTATTAGAGCGCCACGTGGCGGCTTAGAAACGTTTGCGGAGTCACCTAGTGCAG”, which binding signal is on record?
**A.** 21000 fluorescence intensity (a.u.)

**Q.** “CGTTCAGATCAGGCGGACTAGGGGAGTACTCCTACGTGTTCGGAGTCACCTAGTGCAG” was tested. Which binding signal did it give?
**A.** 3920 fluorescence intensity (a.u.)

**Q.** Which binding signal does the source give for “GCTCCCCTCCTCCTTCGCGCCGCGCCGCCGCCACTCGCCACGGAGTCACCTAGTGCAG” here?
**A.** 3820 fluorescence intensity (a.u.)

**Q.** “CAGAAAACAATAGTTATATTTAAGATGGGACGAATGGAGTCGGAGTCACCTAGTGCAG” was tested. Which binding signal did it give?
**A.** 53100 fluorescence intensity (a.u.)
